The shares of active, inactive and inconclusive entries below differ from those in the screen. For part of these data: Potencies beside an inconclusive call are fits to weak or partial responses and may not hold up. Activity calls are given as the source filed them. How the source made its calls: active means hit-call score of the fitted dose curve at least 0.9, where 1 is the maximum; inconclusive means response in the unintended direction; inactive means score below 0.9.
What was measured:
[1] = target: Tyrosine-protein phosphatase non-receptor type 14 (Homo sapiens) (UniProt Q15678); assay: NVS_ENZ_hPTPN14: NovaScreen (NVS) Enzymatic Assay for human Protein Tyrosine Phosphatase Non-receptor Type 14 (PTPN14) (AID 2283206)
How it was run: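 Cell-free recombinant human PTPN14 with fluorescent substrate, read 0.5 h after dosing by fluorescence and electrophoretic mobility shift separating substrate from product. Primary screen at 25 uM in duplicate; hits run to 50 uM maximum; loss of signal versus DMSO.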

By UniProt entry, the sequences of proteins in these tests, tags left out. Where a name states a change or a piece, a line headed by the entry shows the natural chain unless it says otherwise.
UniProt Q15678: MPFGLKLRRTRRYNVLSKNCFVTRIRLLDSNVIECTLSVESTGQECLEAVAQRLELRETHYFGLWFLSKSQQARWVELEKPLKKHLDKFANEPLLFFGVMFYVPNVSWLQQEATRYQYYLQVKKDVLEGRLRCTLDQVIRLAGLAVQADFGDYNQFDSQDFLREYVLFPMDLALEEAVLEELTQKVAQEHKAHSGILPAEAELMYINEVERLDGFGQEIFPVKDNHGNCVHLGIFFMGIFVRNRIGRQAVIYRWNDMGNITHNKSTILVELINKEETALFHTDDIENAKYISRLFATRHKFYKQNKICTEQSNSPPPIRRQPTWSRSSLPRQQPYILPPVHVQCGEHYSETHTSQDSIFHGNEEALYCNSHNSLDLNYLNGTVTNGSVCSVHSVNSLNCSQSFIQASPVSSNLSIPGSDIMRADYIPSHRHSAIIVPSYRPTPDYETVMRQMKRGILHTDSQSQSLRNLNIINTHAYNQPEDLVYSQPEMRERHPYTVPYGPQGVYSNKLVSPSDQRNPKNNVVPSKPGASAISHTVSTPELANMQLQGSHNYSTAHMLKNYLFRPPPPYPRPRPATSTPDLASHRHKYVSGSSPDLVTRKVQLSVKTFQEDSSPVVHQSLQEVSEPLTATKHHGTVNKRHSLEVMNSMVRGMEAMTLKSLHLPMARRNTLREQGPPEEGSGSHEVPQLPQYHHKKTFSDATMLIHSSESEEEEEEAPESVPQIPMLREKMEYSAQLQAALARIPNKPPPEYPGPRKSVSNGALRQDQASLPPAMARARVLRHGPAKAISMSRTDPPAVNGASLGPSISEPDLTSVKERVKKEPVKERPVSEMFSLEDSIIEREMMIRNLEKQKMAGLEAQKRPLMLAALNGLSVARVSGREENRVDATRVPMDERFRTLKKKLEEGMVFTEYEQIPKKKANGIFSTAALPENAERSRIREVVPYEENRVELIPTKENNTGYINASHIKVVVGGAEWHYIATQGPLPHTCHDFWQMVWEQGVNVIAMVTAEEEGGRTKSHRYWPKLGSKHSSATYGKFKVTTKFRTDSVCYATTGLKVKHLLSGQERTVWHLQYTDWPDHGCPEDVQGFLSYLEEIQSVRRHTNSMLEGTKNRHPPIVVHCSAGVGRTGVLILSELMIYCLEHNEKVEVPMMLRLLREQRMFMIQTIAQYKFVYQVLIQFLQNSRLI
UniProt P23467: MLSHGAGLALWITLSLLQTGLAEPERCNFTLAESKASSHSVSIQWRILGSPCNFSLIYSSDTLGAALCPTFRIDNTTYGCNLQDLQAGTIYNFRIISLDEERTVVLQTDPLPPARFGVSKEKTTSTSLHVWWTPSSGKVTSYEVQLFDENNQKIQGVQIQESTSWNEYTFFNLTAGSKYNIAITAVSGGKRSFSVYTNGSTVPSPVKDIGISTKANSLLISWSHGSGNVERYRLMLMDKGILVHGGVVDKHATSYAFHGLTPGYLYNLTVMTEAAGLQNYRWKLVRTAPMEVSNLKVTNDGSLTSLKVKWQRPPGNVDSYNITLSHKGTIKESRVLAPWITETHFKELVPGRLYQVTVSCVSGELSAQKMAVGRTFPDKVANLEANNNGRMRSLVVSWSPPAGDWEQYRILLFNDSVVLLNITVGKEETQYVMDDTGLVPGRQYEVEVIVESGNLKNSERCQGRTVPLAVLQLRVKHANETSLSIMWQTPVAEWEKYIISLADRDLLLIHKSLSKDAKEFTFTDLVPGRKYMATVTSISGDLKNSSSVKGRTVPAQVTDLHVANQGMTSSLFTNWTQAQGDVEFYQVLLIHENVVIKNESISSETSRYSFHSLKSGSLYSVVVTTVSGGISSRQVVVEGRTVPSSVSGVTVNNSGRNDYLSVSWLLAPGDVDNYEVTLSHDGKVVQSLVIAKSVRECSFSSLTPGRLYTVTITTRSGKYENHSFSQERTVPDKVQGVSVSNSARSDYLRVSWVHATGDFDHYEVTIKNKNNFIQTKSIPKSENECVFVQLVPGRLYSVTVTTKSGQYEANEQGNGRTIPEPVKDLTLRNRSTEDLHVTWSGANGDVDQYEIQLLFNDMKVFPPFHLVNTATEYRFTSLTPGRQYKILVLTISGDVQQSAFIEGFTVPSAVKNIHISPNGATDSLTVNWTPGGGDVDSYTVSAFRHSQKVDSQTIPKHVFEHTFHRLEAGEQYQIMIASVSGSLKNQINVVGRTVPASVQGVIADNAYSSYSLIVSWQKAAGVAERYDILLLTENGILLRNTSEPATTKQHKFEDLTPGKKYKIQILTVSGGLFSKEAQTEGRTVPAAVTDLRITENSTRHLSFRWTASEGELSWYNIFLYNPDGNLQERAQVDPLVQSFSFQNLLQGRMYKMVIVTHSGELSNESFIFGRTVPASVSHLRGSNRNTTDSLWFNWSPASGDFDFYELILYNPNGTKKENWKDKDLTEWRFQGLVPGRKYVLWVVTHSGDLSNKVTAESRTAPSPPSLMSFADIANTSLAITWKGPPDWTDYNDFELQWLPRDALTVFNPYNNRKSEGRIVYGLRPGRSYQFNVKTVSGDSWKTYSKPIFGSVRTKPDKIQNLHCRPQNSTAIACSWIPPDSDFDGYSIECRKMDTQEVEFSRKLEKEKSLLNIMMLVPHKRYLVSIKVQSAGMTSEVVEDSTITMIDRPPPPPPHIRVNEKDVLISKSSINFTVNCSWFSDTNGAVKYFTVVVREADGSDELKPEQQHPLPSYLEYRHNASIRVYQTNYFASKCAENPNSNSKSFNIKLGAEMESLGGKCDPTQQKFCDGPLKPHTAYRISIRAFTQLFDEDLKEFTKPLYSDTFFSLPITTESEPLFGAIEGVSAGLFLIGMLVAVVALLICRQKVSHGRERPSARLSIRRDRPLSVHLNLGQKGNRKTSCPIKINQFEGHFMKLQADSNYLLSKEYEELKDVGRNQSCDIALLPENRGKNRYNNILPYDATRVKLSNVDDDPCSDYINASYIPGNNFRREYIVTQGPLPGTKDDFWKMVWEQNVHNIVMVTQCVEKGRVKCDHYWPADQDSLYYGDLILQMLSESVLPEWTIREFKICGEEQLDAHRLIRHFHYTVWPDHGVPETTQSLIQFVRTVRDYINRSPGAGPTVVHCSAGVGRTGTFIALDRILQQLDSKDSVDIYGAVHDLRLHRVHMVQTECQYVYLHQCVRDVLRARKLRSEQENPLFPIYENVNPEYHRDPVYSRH
UniProt Q02763: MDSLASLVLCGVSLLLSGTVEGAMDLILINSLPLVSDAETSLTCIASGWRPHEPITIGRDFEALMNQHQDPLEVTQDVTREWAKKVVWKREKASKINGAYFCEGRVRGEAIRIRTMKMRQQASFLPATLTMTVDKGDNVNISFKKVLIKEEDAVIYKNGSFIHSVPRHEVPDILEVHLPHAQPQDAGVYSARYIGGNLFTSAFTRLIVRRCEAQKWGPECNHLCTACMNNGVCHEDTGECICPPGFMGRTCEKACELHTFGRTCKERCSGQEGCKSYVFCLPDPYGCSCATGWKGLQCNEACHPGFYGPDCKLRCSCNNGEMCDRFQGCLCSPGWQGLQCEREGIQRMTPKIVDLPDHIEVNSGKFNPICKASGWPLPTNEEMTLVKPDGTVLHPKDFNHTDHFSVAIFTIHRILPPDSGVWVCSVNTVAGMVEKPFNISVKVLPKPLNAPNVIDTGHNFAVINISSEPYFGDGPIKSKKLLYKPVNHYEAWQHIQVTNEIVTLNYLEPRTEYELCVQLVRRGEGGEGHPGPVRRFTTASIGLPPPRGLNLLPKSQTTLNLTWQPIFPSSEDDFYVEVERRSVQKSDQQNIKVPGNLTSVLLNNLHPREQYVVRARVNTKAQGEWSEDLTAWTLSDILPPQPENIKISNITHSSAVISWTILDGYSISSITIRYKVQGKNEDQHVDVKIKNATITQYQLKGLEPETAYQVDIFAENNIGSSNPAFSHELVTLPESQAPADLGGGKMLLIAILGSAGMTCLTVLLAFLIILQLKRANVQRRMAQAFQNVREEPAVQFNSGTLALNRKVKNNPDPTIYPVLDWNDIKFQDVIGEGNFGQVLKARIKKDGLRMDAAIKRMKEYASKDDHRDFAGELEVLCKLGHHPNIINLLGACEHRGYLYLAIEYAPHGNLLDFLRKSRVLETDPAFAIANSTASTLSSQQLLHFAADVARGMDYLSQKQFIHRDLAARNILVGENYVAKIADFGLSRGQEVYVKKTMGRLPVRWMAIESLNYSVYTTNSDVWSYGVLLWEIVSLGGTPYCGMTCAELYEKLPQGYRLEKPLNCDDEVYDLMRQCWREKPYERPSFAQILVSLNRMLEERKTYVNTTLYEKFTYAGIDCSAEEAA
UniProt P35916, whole entry, looked up: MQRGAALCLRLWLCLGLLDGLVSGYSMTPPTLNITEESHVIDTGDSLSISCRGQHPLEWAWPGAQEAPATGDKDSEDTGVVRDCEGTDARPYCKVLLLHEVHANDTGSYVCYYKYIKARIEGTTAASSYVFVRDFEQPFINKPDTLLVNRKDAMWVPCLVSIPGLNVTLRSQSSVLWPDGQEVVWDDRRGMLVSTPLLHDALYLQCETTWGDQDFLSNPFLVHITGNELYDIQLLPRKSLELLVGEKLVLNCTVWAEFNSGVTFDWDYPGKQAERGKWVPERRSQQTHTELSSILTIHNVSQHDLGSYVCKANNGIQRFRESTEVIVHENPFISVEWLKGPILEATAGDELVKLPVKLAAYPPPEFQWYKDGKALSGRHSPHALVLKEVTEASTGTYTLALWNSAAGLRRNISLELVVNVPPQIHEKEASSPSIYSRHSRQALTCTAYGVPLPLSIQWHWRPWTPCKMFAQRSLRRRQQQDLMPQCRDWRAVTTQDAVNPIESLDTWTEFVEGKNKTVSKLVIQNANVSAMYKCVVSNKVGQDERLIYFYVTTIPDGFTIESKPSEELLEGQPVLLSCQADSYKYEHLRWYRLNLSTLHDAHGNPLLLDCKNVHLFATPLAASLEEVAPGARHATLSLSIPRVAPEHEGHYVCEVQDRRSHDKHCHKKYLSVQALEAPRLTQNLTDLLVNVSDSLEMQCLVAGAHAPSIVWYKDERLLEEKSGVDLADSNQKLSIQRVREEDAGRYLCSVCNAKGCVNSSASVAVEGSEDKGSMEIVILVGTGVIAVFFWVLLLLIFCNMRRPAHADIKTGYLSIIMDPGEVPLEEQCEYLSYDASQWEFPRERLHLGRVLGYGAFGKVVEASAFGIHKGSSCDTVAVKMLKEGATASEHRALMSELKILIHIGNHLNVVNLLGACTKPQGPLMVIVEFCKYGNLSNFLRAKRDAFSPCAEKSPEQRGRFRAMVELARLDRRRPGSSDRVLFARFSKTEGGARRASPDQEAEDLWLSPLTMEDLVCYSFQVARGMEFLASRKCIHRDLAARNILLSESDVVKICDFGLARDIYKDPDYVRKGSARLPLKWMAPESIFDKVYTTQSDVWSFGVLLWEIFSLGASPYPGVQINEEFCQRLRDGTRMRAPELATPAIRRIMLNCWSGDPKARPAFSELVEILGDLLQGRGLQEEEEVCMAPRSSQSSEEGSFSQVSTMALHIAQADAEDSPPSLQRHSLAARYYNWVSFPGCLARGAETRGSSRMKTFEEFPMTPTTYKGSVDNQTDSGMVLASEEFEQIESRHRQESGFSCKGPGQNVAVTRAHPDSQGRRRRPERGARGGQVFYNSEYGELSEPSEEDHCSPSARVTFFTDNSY
UniProt P14416, whole entry, looked up: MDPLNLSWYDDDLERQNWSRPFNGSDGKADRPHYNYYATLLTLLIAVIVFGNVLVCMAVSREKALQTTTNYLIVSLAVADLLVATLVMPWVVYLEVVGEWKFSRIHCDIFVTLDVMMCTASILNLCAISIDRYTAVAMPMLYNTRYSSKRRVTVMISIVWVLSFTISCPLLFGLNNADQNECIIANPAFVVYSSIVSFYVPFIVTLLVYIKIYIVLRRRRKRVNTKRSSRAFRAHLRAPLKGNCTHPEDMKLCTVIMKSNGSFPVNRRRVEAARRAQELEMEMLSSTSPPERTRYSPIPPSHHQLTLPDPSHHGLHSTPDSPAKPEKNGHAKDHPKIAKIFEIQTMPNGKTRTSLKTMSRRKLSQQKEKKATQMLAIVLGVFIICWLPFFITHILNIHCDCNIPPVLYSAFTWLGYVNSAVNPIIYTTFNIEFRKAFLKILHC
UniProt P19793: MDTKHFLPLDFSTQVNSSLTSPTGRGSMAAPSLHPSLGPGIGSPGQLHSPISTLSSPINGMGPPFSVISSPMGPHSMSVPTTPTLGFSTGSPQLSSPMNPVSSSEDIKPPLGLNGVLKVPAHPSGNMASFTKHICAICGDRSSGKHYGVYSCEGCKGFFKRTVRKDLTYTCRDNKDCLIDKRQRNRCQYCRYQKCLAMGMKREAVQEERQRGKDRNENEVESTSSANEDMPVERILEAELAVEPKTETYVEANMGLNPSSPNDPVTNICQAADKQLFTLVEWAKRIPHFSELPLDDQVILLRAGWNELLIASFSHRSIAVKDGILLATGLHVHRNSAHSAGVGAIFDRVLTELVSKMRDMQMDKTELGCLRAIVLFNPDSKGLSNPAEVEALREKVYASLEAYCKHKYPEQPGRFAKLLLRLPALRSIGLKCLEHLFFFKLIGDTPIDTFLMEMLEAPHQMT

[2] = target: human Protein Tyrosine Phosphatase Non-receptor Type 4 (PTPN4), PTPN4 (gene 5775) (UniProt P29074); assay: NVS_ENZ_hPTPN4: NovaScreen (NVS) Enzymatic Assay for human Protein Tyrosine Phosphatase Non-receptor Type 4 (PTPN4) (AID 2283208)
How it was run: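 Cell-free assay of PTPN4 expressed in Sf9 cells, using a fluorescent substrate with product separated by mobility shift; read 1.33 h after dosing. Single-point screen at 25 uM, then concentration-response up to 50 uM. Loss of signal relative to DMSO.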

[3] = target: human Protein Tyrosine Phosphatase Receptor Type B (PTPRB), PTPRB (gene 5787) (UniProt P23467); assay: NVS_ENZ_hPTPRB: NovaScreen (NVS) Enzymatic Assay for human Protein Tyrosine Phosphatase Receptor Type B (PTPRB) (AID 2283211)
How it was run: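 Recombinant human PTPRB with a fluorescent substrate, product separated by electrophoretic mobility shift; read 1 h after dosing. Primary screen in duplicate at 25 uM; actives then retested in concentration series; loss of signal versus DMSO.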

[4] = target: human Protein Tyrosine Phosphatase Receptor Type F (PTPRF), PTPRF (gene 5792) (UniProt P10586); assay: NVS_ENZ_hPTPRF: NovaScreen (NVS) Enzymatic Assay for human Protein Tyrosine Phosphatase Receptor Type F (PTPRF) (AID 2283213)
How it was run: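 Cell-free fluorescence enzyme assay with recombinant protein and substrate; product separated by electrophoretic mobility shift. Read 1 h after dosing, single 25 uM duplicate screen, then concentration-response up to 50 uM; loss of signal vs DMSO.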

[5] = target: human SRC Proto-Oncogene, Non-receptor Tyrosine Kinase (SRC), SRC (gene 6714) (UniProt P12931); assay: NVS_ENZ_hSRC: NovaScreen (NVS) Enzymatic Assay for human SRC Proto-Oncogene, Non-receptor Tyrosine Kinase (SRC) (AID 2283223)
How it was run: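 Cell-free kinase activity assay with fluorescent substrate, product separated by electrophoretic mobility shift, read 1 h after dosing. Duplicate single point at 25 uM, then concentration-response up to 50 uM; loss of signal versus DMSO.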

[6] = target: human Tyrosine Protein Kinase Receptor Tie-2 (Tie2), TEK (gene 7010) (UniProt Q02763); assay: NVS_ENZ_hTie2: NovaScreen (NVS) Enzymatic Assay for human Tyrosine Protein Kinase Receptor Tie-2 (Tie2) (AID 2283225)
How it was run: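 Recombinant human Tie2 kinase activity was read cell-free by fluorescence with electrophoretic mobility shift, 1 hour after dosing. The screen used 25 uM in duplicate, then concentration-response up to 50 uM. Signal loss was scored against DMSO.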

[7] = target: human Vascular Endothelial Growth Factor Receptor 3 (VEGFR3), FLT4 (gene 2324) (UniProt P35916); assay: NVS_ENZ_hVEGFR3: NovaScreen (NVS) Enzymatic Assay for human Vascular Endothelial Growth Factor Receptor 3 (VEGFR3) (AID 2283229)
How it was run: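 Cell-free recombinant VEGFR3 kinase reaction with fluorescent substrate, read 1 h after dosing by electrophoretic mobility shift separation of substrate and product. Single-concentration duplicate screen at 25 uM, then concentration-response up to 50 uM; loss of activity versus DMSO.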

[8] = target: human Vascular Endothelial Growth Factor Receptor 2 (VEGFR2), KDR (gene 3791) (UniProt P35968); assay: NVS_ENZ_hVEGFR2: NovaScreen (NVS) Enzymatic Assay for human Vascular Endothelial Growth Factor Receptor 2 (VEGFR2) (AID 2283230)
How it was run: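 Cell-free recombinant VEGFR2 kinase, fluorescent substrate with electrophoretic mobility-shift separation; read 1 h after dosing. Screened at 25 uM in duplicate, hits to concentration-response up to 50 uM; loss-of-signal versus DMSO.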

[9] = target: human Serotonin, 5-Hydroxytryptamine Receptor 2A (5HT2A), HTR2A (gene 3356) (UniProt P28223); assay: NVS_GPCR_h5HT2A: NovaScreen (NVS) G Protein-Coupled Receptor Assay for human Serotonin, 5-Hydroxytryptamine Receptor 2A (5HT2A) (AID 2283249)
How it was run: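 Human cortex membranes, cell-free radioligand binding; filter-based scintillation read 1.5 h after dosing. Duplicate screen at 25 uM first; displacement of specific binding (loss of signal) versus DMSO.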

[10] = target: human Dopamine Receptor D2 (DRD2), DRD2 (gene 1813) (UniProt P14416); assay: NVS_GPCR_hDRD2s: NovaScreen (NVS) G Protein-Coupled Receptor Assay for human Dopamine Receptor D2 (DRD2) (AID 2283266)
How it was run: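 Radioligand displacement used human DRD2 membranes extracted from CHO cells and was read by filter-based scintillation counting after 1.5 hours. Primary screening was in duplicate at 25 uM. Loss of signal versus DMSO was fitted, with concentration series in follow-up.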

[11] = target: Retinoic acid receptor RXR-alpha (Homo sapiens) (UniProt P19793); assay: OT_NURR1_NURR1RXRa_0480: Odyssey Thera (OT) 8-hour HEK293T Protein Complementation Assay for Nurr1/retinoid X receptor (RXR) (AID 2283385)
How it was run: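 HEK293T cells expressing Nurr1 and RXRα fused to reporter fragments were dosed with compound for 8 hours. Complex formation was read as fluorescence intensity and analysed as gain of signal against DMSO as baseline.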

[12] = target: Retinoic acid receptor RXR-alpha (Homo sapiens) (UniProt P19793); assay: OT_NURR1_NURR1RXRa_1440: Odyssey Thera (OT) 24-hour HEK293T Protein Complementation Assay for Nurr1/retinoid X receptor (RXR) (AID 2283386)
How it was run: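 HEK293T cells were dosed with compound and read 24 h later by fluorescence intensity in a protein-fragment complementation format, where Nurr1–RXRα interaction reconstitutes a split reporter. Activity was fitted as gain of signal relative to DMSO baseline.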

[13] = LTEA_HepaRG_LDH_cytotoxicity: Cytotoxicity Assessment in the Life Technologies and Expression Analysis (LTEA) Assay (AID 2283563);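 further: LDH activity released into spent culture medium as a marker of cell death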
How it was run: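 Cells were thawed and plated for 48 h. Medium was then replaced with serum-free induction medium. Chemicals (8 half-log points, maximum 100 uM, 0.5% DMSO) were added in duplicate for 48 h, after which spent medium was assayed for LDH.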

[14] = ATG_XTT_Cytotoxicity: Cytotoxicity Assessment in the Attagene TRANS-FACTORIAL HepG2 Assay (AID 2283584)
How it was run: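 Cells: human HepG2, transiently transfected with MRTU reporter constructs. Exposure 24 h. Readout: XTT, cell number. Baseline/neg ctrl DMSO; loss-of-signal scored.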

[15] = Tanguay_ZF_120hpf_YSE_legacy: (Legacy) Oregon State University Tanguay Lab 120 Hour Post-fertilization zebrafish Assay for Yolk Sac Edema (AID 2283634);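 further: actives raise the incidence of yolk sac edema above the DMSO baseline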
How it was run: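 Dechorionate (pronase, 4 hpf) → place one 6 hpf embryo per well → static compound exposure, sealed and foil-covered, 28C, to 120 hpf → record yolk sac edema as present or absent. Final DMSO 0.64%.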

[16] = Tanguay_ZF_120hpf_EYE_legacy: (Legacy) Oregon State University Tanguay Lab 120 Hour Post-fertilization zebrafish Assay for Eye Malformation (AID 2283636)
How it was run: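 Dechorionated wild-type Tropical 5D zebrafish embryos were exposed statically from 6 hpf, one per well, to 120 hpf at 28C in sealed, foil-covered plates with 0.64% DMSO. Eye malformation was scored present/absent by brightfield microscopy against DMSO controls.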

[17] = Tanguay_ZF_120hpf_CFIN_legacy: (Legacy) Oregon State University Tanguay Lab 120 Hour Post-fertilization zebrafish Assay for Caudal Fin Malformation (AID 2283649)
How it was run: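 Binary presence or absence of caudal fin malformation at 120 hpf, read by brightfield microscopy, with DMSO as baseline. Larvae came from 5D wild-type embryos exposed statically from 6 hpf at 28C after pronase dechorionation.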

[18] = Tanguay_ZF_120hpf_PIG_legacy: (Legacy) Oregon State University Tanguay Lab 120 Hour Post-fertilization zebrafish Assay for Pigmentation Malformation (AID 2283650)
How it was run: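 Tropical 5D wild-type zebrafish embryos, dechorionated with pronase at 4 hpf, were exposed singly from 6 hpf to 120 hpf statically at 28C in sealed, dark plates with 0.64% DMSO; pigmentation scored present/absent by brightfield microscopy, fitted against DMSO.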

[19] = Tanguay_ZF_120hpf_SWIM_legacy: (Legacy) Oregon State University Tanguay Lab 120 Hour Post-fertilization zebrafish Assay for Swim Bladder Malformation (AID 2283654);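 further: swim bladder malformation in each larva scored yes or no under brightfield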
How it was run: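 Dechorionated Tropical 5D wild-type embryos, placed singly from 6 hpf, were statically exposed at 28C to 120 hpf with 0.64% DMSO final; swim bladder malformation was scored present/absent by brightfield microscopy, gain of signal relative to DMSO controls.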

[20] = Tanguay_ZF_120hpf_TRUN_legacy: (Legacy) Oregon State University Tanguay Lab 120 Hour Post-fertilization zebrafish Assay for Truncated Body (AID 2283655)
How it was run: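 Truncated body is recorded as a binary endpoint at 120 hpf by brightfield imaging of wild-type 5D larvae. Exposure runs statically from 6 hpf at 28C with 0.64% DMSO; embryos dying earlier are not scored.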

[21] = ACEA_AR_agonist_AUC_viability: ACEA Biosciences xCELLigence Real-Time Cell Analysis on Androgen Receptor Agonism for Viability (AID 2283775)
How it was run: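 Read-out is area under the impedance curve at 80 h post-dose in 22Rv1 cells, with DMSO as baseline and signal loss taken as reduced viability. Compounds ran in duplicate from 100 uM final.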

[22] = CCTE_Harrill_HTTr_CellCount_MCF7: CCTE's Cell Proliferation Assessment for the High-Throughput Transcriptomics (HTTr) Platform, Harrill Lab (AID 2284012);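 further: cells exposed to compound for six hours; intended direction is loss of nuclei count meaning fewer cells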
How it was run: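 MCF-7 cells were exposed for 6 h to an eight-point dilution series; Hoechst-labeled nuclei were counted by high content imaging. Curves were fitted bidirectionally against DMSO as negative control and baseline, with signal loss indicating reduced cell count.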

[23] = CCTE_Deisenroth_AIME_384WELL_CTox_Active: Cytotoxicity Assessment (CTOX) in CCTE's 384-well Estrogen Receptor Transactivation Assay with AIME metabolic competence (metabolism positive), Deisenroth Lab (AID 2284037);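 further: chemicals first conditioned 2 h by alginate-bound induced rat liver S9 before cells; activity means signal loss indicating cell death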
How it was run: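 VM7Luc4E2 breast cells received medium pre-incubated 2 h with chemical over alginate microspheres holding induced male Sprague Dawley rat liver S9; viability read 24 h later by protease-substrate fluorescence. Loss of signal, bidirectional fit, 0.002–200 uM.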

[24] = CCTE_Deisenroth_AIME_384WELL_CTox_Inactive: Cytotoxicity Assessment (CTOX) in CCTE's 384-well Estrogen Receptor Transactivation Assay without AIME metabolic competence (metabolism negative), Deisenroth Lab (AID 2284039);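 further: cell viability via live-cell protease substrate cleaved to fluorescent probe; cells exposed 24 h to medium preincubated 2 h with alginate-water beads without S9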
How it was run: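 VM7Luc4E2 cells, metabolism-negative arm: test chemicals (0.002–200 uM, 10 points) pre-incubated 2 h with alginate-water microspheres, then medium transferred to cells for 24 h. Viability read as protease-substrate cleavage to fluorescent probe; loss-of-signal, bidirectional fitting.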

Measured: AC50

CC(C)O.CC(C)O.OCCN(CCO)CCO.OCCN(CCO)CCO.[Ti]
active: [1] 0.00229 µM | [3] 0.00229 µM | [4] 3.38 µM | [5] 0.00229 µM | [6] 3.53 µM | [7] 21.8 µM | [8] 6.5 µM
inconclusive: [2] 25 µM | [10] 1.02 µM | [11] 50 µM | [12] 11.9 µM | [13] 0.000626 µM | [15] 202 µM | [16] 142 µM | [17] 202 µM | [20] 196 µM | [22] 50 µM
inactive: [9] | [14] | [18] | [19] | [21] | [23] | [24]
